According to US20230070261A1 (UCB, published 2023):
Results are given in words; binding and its absence hold for the method and conditions named. Some binding calls cover weakened binding; strength is not graded here.

Sequences of proteins named here, by UniProt entry; tags and fusion partners are left off. Residues count along the entry.
UniProt Q9Y337, residues 67-293: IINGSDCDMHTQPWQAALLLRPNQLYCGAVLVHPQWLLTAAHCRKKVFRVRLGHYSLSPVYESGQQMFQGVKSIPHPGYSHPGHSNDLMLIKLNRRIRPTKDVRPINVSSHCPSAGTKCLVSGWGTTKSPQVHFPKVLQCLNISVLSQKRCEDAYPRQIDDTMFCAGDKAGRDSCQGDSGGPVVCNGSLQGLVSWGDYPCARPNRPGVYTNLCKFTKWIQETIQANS

Tests used:
[1] = target: Human KLK5 (from N-terminal TEV-cleavable 8xHis-tag construct, tag removed) (human) (UniProt Q9Y337); test: size exclusion chromatography on Superdex 200; KLK5 first bound to LEKTI D5, then Fab added, 25 uM each (ternary complex)
[2] = target: Human KLK5 (from N-terminal TEV-cleavable 8xHis-tag construct, tag removed) (human) (UniProt Q9Y337); test: size exclusion chromatography and SDS-PAGE; Fab added to preformed KLK5-LEKTI D5 or KLK5-LEKTI D8 complex
[3] = target: Human KLK5 (from N-terminal TEV-cleavable 8xHis-tag construct, tag removed) (human) (UniProt Q9Y337); test: size exclusion chromatography on Superdex 200; KLK5 first bound to LEKTI D8, then Fab added, 25 uM each (ternary complex) [cont.) B]
[4] = target: Human KLK5 (from N-terminal TEV-cleavable 8xHis-tag construct, tag removed) (human) (UniProt Q9Y337); test: SDS-PAGE of the SEC peak fractions of KLK5+LEKTI D5+rabbit Fab 10273 (co-elution)
[5] = target: Human KLK5 (from N-terminal TEV-cleavable 8xHis-tag construct, tag removed) (human) (UniProt Q9Y337); test: SDS-PAGE of the SEC peak fractions of KLK5+LEKTI D8+rabbit Fab 10273 (co-elution)

Measured: binding

B1: Rabbit Fab antibody 10273 (Fab, V domains shown)
VH: QSVEESGGRLVTPGTPLTLTCTVSGFSLSSYGMSWVRQAPGKGLEWIGIISSSGSTYYASWAKGRFTISKTSTTVDLKIASPTTEDTATYFCARDHIYRYDDYGDYPTYYGMDPWGPGTLVTVSS
VL: AVVLTQTPSPMSAAVGGTVTISCQSSQSVYNNNDLAWYQQKPGQPPKLLIYRASTLASGVPSRFSGSGSGTQFTLTISGVQCDDAATYYCLGGYDDDVDTYTFGGGTEVVVKR
binds: all assays above
